From paper PMC10763564 (RSC Chemical Biology, 2023)
Strings that start with PEPTIDE1 are HELM notation: dots part the residues, brackets hold end groups and non-standard residues.

Test: general procedure: Fmoc solid-phase peptide synthesis; Rink amide (aminomethyl)polystyrene resin (substitution of 0.70 mmol/g)
Settings: whole synthesis, scale of the general procedure 200 μmols

Substance	final HPLC purity [%]
sCy5-CVHWDFRQWCQPSC-NH2 (TBMB)	> 98
H-GVHWDFRQWWQPS-NH2	> 98
sCy5-CVHWDFRCQWWQPSC-NH2 (TBMB)	90
sCy5-CVHWDCRQWWQPSC-NH2 (TBMB)	> 98
N3-GSGCVHWDCRQWC-NH2 (TBMB)	> 98
Mal-GSGCVHWDCRQWC-NH2 (TBMB)	>98
H-CVHWDFRCQWWQPSC-NH2 (TBMB)	> 98
H-CVHWDCRQWWQPSC-NH2 (TBMB)	95
PEPTIDE1{C.V.H.W.D.F.R.Q.W.C.Q.P.S.C.[am]}|CHEM1{[TBMB]}$PEPTIDE1,CHEM1,1:R3-1:R1|PEPTIDE1,CHEM1,10:R3-1:R2|PEPTIDE1,CHEM1,14:R3-1:R3$$$V2.0	> 98
sCy5-GVHWDFRQWWQPS-NH2	> 98
N3-TFFYGGSRGKRNNFKTEEY-NH2	> 98
PEPTIDE1{C.V.H.W.D.C.R.Q.W.C.[am]}|CHEM1{[TBMB]}$PEPTIDE1,CHEM1,1:R3-1:R1|PEPTIDE1,CHEM1,6:R3-1:R2|PEPTIDE1,CHEM1,10:R3-1:R3$$$V2.0	> 98
sCy5-GSGCVHWDCRQWC-NH2 (TBMB)	> 98
